Results are given in words; binding and its absence hold for the method and conditions named. Binding can be weak; no strength is given. For part of these data: In cells and extracts the contact can be indirect.
T1: mCherry::DRSH-1 (C. elegans) (UniProt O01326)
T1 sequence: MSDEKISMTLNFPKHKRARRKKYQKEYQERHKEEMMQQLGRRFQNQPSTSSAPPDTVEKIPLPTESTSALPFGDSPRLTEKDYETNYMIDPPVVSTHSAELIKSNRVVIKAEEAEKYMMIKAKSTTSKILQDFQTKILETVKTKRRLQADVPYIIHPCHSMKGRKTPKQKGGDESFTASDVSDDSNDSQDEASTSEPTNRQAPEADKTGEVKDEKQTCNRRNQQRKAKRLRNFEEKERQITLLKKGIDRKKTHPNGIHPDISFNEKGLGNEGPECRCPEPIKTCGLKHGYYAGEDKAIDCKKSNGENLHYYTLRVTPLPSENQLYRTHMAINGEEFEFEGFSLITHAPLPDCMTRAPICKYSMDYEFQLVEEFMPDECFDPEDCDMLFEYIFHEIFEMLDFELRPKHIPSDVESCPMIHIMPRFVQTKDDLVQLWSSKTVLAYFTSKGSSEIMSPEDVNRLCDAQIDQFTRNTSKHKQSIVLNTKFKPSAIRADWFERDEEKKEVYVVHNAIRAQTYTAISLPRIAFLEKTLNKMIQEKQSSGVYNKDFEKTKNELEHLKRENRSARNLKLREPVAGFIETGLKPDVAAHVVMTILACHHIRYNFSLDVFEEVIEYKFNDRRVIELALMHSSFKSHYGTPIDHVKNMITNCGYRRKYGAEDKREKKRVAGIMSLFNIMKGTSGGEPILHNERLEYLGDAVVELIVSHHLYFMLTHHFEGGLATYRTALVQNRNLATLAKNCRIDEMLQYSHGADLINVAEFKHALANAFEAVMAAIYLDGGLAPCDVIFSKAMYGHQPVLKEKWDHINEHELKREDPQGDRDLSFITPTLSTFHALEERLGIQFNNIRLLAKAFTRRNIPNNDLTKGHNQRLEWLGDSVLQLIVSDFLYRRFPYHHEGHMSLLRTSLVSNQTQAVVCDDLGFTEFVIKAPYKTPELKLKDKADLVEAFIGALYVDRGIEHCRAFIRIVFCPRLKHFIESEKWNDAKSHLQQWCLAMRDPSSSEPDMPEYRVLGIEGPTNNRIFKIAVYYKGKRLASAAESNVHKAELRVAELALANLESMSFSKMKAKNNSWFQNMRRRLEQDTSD

B1: mCherry::DRSH-1 (enzyme, UniProt O01326 1-1086)
chain: T1 sequence

Columns and labels:
[1] = biological target: T1, mCherry::DRSH-1 (C. elegans); experiment: SEC; C. elegans lysate treated with 0.5 μg/μL RNase I for 1 h at 4 °C, separated on Superdex 200 Increase 10/300 GL; fractions analysed by Western blot for GFP and mCherry
[2] = biological target: T1, mCherry::DRSH-1 (C. elegans); experiment: co-IP; mCherry::DRSH-1 precipitated from gravid adult C. elegans lysate with RFP-Trap magnetic agarose beads, 1 h at 4 °C; 50 mM Tris-Cl pH 7.4, 100 mM KCl, 2.5 mM MgCl2, 0.1% Igepal CA-630; Western blot for GFP
[3] = biological target: PASH-1[Δ12-148]::GFP (C. elegans); experiment: co-IP; PASH-1::GFP forms precipitated from gravid adult C. elegans lysate with GFP-Trap magnetic agarose beads, 1 h at 4 °C; 50 mM Tris-Cl pH 7.4, 100 mM KCl, 2.5 mM MgCl2, 0.1% Igepal CA-630; Western blot for mCherry
PASH-1::GFP (C. elegans) = experiment: as above
[4] = biological target: PASH-1[G179R]::GFP (C. elegans); experiment: as above

Row | Molecule | binding [1] | binding [2] | binding [3] | binding (PASH-1::GFP (C. elegans)) | binding [4]
1 | PASH-1::GFP (C. elegans) | binds | binds |  |  | 
2 | PASH-1[G179R]::GFP (C. elegans) | binds | binds |  |  | 
3 | PASH-1[W180A]::GFP (C. elegans) | binds | binds |  |  | 
4 | B1 |  |  | binds | binds | binds
